Data taken from patent US20230210903A1, “HYPOXIA-RESISTANT NATURAL KILLER CELLS” (ONK THERAPEUTICS LIMITED, priority 2020, published 2023).
For at least one compound, name, drawing or mass did not settle the structure.

What was measured:
[1] = test system: NK-92 cells; assay: Flow cytometry of activating receptors on NK cell surface, NK-92; format: cell-based; settings: 10 μM inhibitor for 24 h
Method: (§1) Hypoxia diminishes the phosphorylation level of ERK and STAT3.
(§2) The expression of NK cell cytotoxicity effector molecules and activating receptors was analyzed by flow cytometry. For membrane staining, 5×10^5 cells were collected and washed with staining buffer (PBS containing 0.1% NaN3 and 0.1% BSA) three times. The cells were then incubated for 30 min on ice, according to the instructions provided with the respective antibodies. After washing 3 times with cell stain buffer, the cells were resuspended in 300 μL staining buffer in the presence of Sytox Green or 7-AAD, which were used to gate out dead cells. Acquisition of 10,000 cells per reaction was performed using a CytoFLEX Cytometer (Beckman Coulter Life Sciences). Data were analyzed with Flowjo v7.6.2 (Tree Star). For intracellular staining, 5×10^5 cells were collected and fixed with 1 mL 1% paraformaldehyde in PBS for 15 minutes at room temperature. After washing 3 times with cell stain buffer, the fixed cells were then resuspended in 2 mL permeabilization buffer (0.1% saponin in cell staining buffer) and incubated for 30 min at room temperature. The cells were collected again by centrifugation, stained with the antibody at an optimal working concentration in permeabilization buffer for 15 min on ice. […]

[2] = test system: KHYG-1 cells; assay: Flow cytometry of activating receptors on NK cell surface, KHYG-1; format: cell-based; settings: 10 μM inhibitor for 24 h
Method: as §1, §2

SMILES: C[C@H]1COC2=C1C(=O)C(=O)c1c2ccc2c1CCCC2(C)C [cryptotanshinone]
- expression of activating receptors NKp46 and NKG2D [1]: significantly reduced
- expression of activating receptors NKp30, NKp46 and NKG2D [2]: significantly reduced
